Results deposited as PubChem BioAssay AID1259259 (Sanger Institute, 2017)
Test: 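Kinome siRNA search for kinases essential alone or combined with trametinib, cetuximab or BYL719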 (primary screen). Cell system: SW1463 human colorectal cancer cells. Reagent: siRNA pool against human genes. Conditions: DMSO vehicle, or one anchor drug: BYL719 at 1 µM, cetuximab at 5 µg/ml, or trametinib at 10 nM. Read-out: 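Viability relative to control pool 2 (non-targeting) averaged over replicates, robust z-score for knock-down with no drug, and for each anchor drug the mean synergy score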. Reading the numbers: robust z-score, knock-down alone: higher = more viable cells after knock-down; viability, knock-down alone: higher = more viable cells; synergy score with BYL719 and synergy score with cetuximab and synergy score with trametinib: higher = stronger synergy (synthetic lethal) with drug. Call rule: 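Knock-down called essential when its robust z-score without drug falls below -3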. Calls: active = essential: viability loss from knock-down alone; inactive = no change from knock-down alone.
In all, the deposit lists 794 reagents; below is an unselected part. 9 of them (1.1%) count as active. 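Calls rest on knock-down alone, not drug synergy; viability values seem capped at 1.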 Entries without a mark were called inactive. Not given: the amount of reagent, the time to read-out.

| Target gene | robust z-score, knock-down alone | viability, knock-down alone (fraction of control) | synergy score with BYL719 | synergy score with cetuximab | synergy score with trametinib |
| --- | --- | --- | --- | --- | --- |
| RIOK3 | 1.13 | 1 | 0.0483 | 0.148 | -0.0217 |
| ERBB4 | 0.963 | 0.99 | 0.0832 | 0.0366 | 0.2 |
| CSNK2A1 | 1.04 | 0.994 | -0.0057 | 0.0499 | 0.0337 |
| GOLGA5 | 0.124 | 0.936 | -0.00263 | -0.0694 | -0.0369 |
| DGKB | -0.245 | 0.912 | 0.245 | 0.0979 | -0.0936 |
| NEK7 | 1.13 | 1 | 0 | 0.0106 | -0.0326 |
| PSKH2 | 0.501 | 0.96 | 0.0721 | 0.0898 | 0.271 |
| TGFBR1 | 1.13 | 1 | 0 | 0.191 | 0.109 |
| CAMK4 | 0.823 | 0.981 | -0.0195 | 0.07 | -0.0515 |
| ADPGK | -0.82 | 0.875 | -0.125 | -0.133 | -0.13 |
| PIK3R4 | 0.28 | 0.946 | -0.0517 | 0.167 | 0.00245 |
| FXN | 0.361 | 0.951 | 0.0157 | -0.0665 | 0.0806 |
| NME2 | 1.13 | 1 | 0 | 0.0111 | 0.0655 |
| RTN4 | -0.0375 | 0.925 | -0.0304 | 0.0665 | 0.125 |
| APC | -1.71 | 0.818 | 0.0453 | 0.0409 | 0.0222 |
| SMC1A | -0.614 | 0.888 | 0.0309 | 0.11 | 0.25 |
| MAPK15 | 1.13 | 1 | 0 | -0.0272 | -0.0326 |

Look-ups from the list:
For “viability, knock-down alone (fraction of control)”, MAPK15 shows 1
For “robust z-score, knock-down alone”, DGKB reads -0.245
Under “synergy score with BYL719”, CAMK4 reads -0.0195

The listing continues.
| Target gene | robust z-score, knock-down alone | viability, knock-down alone (fraction of control) | synergy score with BYL719 | synergy score with cetuximab | synergy score with trametinib |
| --- | --- | --- | --- | --- | --- |
| CDK7 | 1.13 | 1 | 0.0563 | 0.149 | 0.165 |
| PKLR | -0.152 | 0.918 | -0.00556 | 0.0856 | -0.0805 |
| WNK2 | 1.13 | 1 | 0 | 0.0718 | -0.0326 |
| TK2 | 1.13 | 1 | 0.0178 | 0.0303 | -0.00206 |
| SGK3 | -0.335 | 0.906 | 0.0255 | -0.0219 | 0.0405 |
| AKT3 | -0.588 | 0.89 | -0.0535 | -0.0732 | -0.00819 |
| MAPK14 | 0.396 | 0.953 | 0.0718 | 0.145 | 0.122 |
| PFKP | 1.13 | 1 | 0 | -0.0272 | -0.0181 |
| PI4KA | -0.424 | 0.9 | -0.0185 | -0.0521 | -0.106 |
| CDC42BPA | -0.0601 | 0.924 | -0.00897 | 0.167 | 0.0604 |
| CDC42BPG | -0.509 | 0.895 | -0.0357 | -0.0114 | 0.126 |
| CKS2 | -0.00882 | 0.927 | -0.0729 | 0.0267 | 0.116 |
| JAK2 | -0.841 | 0.874 | 0.096 | 0.0482 | 0.166 |
| NUP107 | -3.24 (active) | 0.72 | 0.0152 | -0.0247 | -0.0806 |
| CSNK2B | -0.0826 | 0.922 | 0.0725 | 0.143 | 0.149 |
| CHKA | 0.00612 | 0.928 | 0.00844 | 0.00915 | 0.062 |
| TNIK | 0.213 | 0.941 | 0.0652 | 0.041 | 0.00833 |
| EFNB3 | -1.15 | 0.854 | -0.00946 | 0.0293 | -0.101 |
| RPS6KA2 | 0.862 | 0.983 | -0.017 | 0.0377 | -0.0491 |
| NRBP2 | -1.46 | 0.834 | -0.0779 | 0.0661 | 0.0893 |
| ROS1 | -0.781 | 0.877 | -0.0989 | -0.146 | -0.145 |
| CKMT2 | 0.243 | 0.943 | 0.0818 | 0.201 | 0.0594 |
| PLK1 | -4.38 (active) | 0.646 | -0.0556 | 0.289 | 0.239 |
| BMP2K | 1.13 | 1 | 0.0482 | 0.0397 | -0.00656 |
| CLK2 | -1.23 | 0.849 | -0.125 | -0.0173 | 0.0733 |
| CDKN2D | -0.842 | 0.874 | -0.105 | -0.021 | 0.0908 |
| DIS3 | 1.13 | 1 | 0.109 | 0.209 | 0.158 |
| SCYL3 | -2.4 | 0.774 | -0.123 | -0.192 | -0.0499 |
| LMTK3 | 0.774 | 0.977 | -0.0207 | 0.0209 | 0.276 |
| ROCK1 | 0.304 | 0.947 | -0.0528 | 0.038 | -0.0837 |
| PRKCQ | -2.04 | 0.796 | -0.0943 | -0.112 | 0.00651 |
| TAF1L | 0.767 | 0.977 | -0.0231 | 0.0254 | 0.0214 |
| EIF2AK2 | 0.101 | 0.934 | -0.0659 | -0.0733 | -0.0312 |
